Laboratory results: PMC11876641, “Ephrin A1 functions as a ligand of EGFR to promote EMT and metastasis in gastric cancer” (The EMBO Journal, 2025)
No constants are given. Whether binding was seen depends on the method and setting. Binding seen in cells or lysates may run through a third protein. A result given as binding can be weak or reduced; the word gives no strength.

Amino acid sequences for entries named in this document (tags omitted). Residues count along the entry.
UniProt P20827, residues 19-182: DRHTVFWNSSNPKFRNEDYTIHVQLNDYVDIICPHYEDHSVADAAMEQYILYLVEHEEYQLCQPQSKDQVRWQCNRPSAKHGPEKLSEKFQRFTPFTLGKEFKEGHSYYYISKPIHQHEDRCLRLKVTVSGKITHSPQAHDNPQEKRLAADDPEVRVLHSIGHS

How the values were obtained:
[1] = target: EGFR-△D1 + 3-Myc (human) (UniProt P00533); experiment: co-IP; MKN45 cells transfected with EGFR-Myc wild type or deletion constructs; anti-Myc beads; western blot for Ephrin A1
[2] = target: EGFR-△ECD-Myc (human) (UniProt P00533); experiment: as above

binding [1]: binds weakly | binding [2]: binds weakly
Substance: Ephrin A1 (in MKN45 cells) (from UniProt P20827 19-182) (ligand)
